Results deposited as PubChem BioAssay AID686943 (Drosophila RNAi Screening Center, 2013)
Test: 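Fly genes whose loss alters ERK activation after insulin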 (primary screen). Cell system: Drosophila S2R+ haemocyte-like cells expressing YFP-tagged ERK (Rolled). Knock-down reagent: long dsRNA against Drosophila genes. Challenge: insulin stimulation versus unstimulated cells; dose and duration not given. Measurement: 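Antibody staining for doubly phosphorylated ERK divided by ERK-YFP signal, as plate z-scores, in insulin-treated and untreated cells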. Direction: replicate 1, z-score of dpERK with insulin: higher = more active ERK per ERK-YFP after insulin.
The deposit covers about 23,000 reagents; below is an unselected part of those with a known target gene and a result. 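Extra replicates exist only for a retested subset of genes; insulin dose and duration not given; both raised and lowered dpERK matter.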 Reagents against one gene are numbered here. Names joined by + are all predicted targets of the reagent. Further read-outs or replicates are left out here. The record does not give: the amount of reagent, the time to read-out.

CG18635 (GeneID 37031) scored replicate 1, z-score of dpERK with insulin 0.52.
Silencing of Cox11 (GeneID 33776) resulted in: replicate 1, z-score of dpERK with insulin 1.12.
Depletion of CR42785 (GeneID 10178921) resulted in: replicate 1, z-score of dpERK with insulin -0.86.
Silencing of CG13367 (GeneID 31013) #1 resulted in: replicate 1, z-score of dpERK with insulin 0.6.
With knock-down of CG13367 (GeneID 31013) #2 the results were replicate 1, z-score of dpERK with insulin 0.07.
Knock-down of CG6216 (GeneID 39257) came out at: replicate 1, z-score of dpERK with insulin -0.09.
With knock-down of Glut3 (GeneID 42036), the record shows replicate 1, z-score of dpERK with insulin 0.78.
CG13840 (GeneID 42705) showed replicate 1, z-score of dpERK with insulin -1.45.
fliI (GeneID 33110) showed replicate 1, z-score of dpERK with insulin 2.26.
After knock-down of Glut4EF (GeneID 41217) #1, the record shows replicate 1, z-score of dpERK with insulin -2.41.
For Glut4EF (GeneID 41217) #2 the deposit lists replicate 1, z-score of dpERK with insulin 1.38.
Depletion of Glut4EF (GeneID 41217) #3 came out at: replicate 1, z-score of dpERK with insulin 2.15.
After knock-down of Glut4EF (GeneID 41217) #4, the record shows replicate 1, z-score of dpERK with insulin 0.4.
For Glut4EF (GeneID 41217) #5, the values are replicate 1, z-score of dpERK with insulin -1.24.
Depletion of mthl10 (GeneID 38057) #1 gave: replicate 1, z-score of dpERK with insulin -0.83.
After knock-down of mthl10 (GeneID 38057) #2, the screen gave replicate 1, z-score of dpERK with insulin 1.2.
With knock-down of CG5056 (GeneID 34406) the results were replicate 1, z-score of dpERK with insulin 0.51.
CG34202 (GeneID 5740498) showed replicate 1, z-score of dpERK with insulin 3.68.
Silencing of CG15115 (GeneID 37192) gave: replicate 1, z-score of dpERK with insulin -0.55.
Against LIMK1 (GeneID 32207) the deposit lists replicate 1, z-score of dpERK with insulin 0.18.
After knock-down of CG13678 (GeneID 38922), the record shows replicate 1, z-score of dpERK with insulin 1.78.
Silencing of Eig71Eg (GeneID 39708) gave: replicate 1, z-score of dpERK with insulin 0.57.
For CG30076 (GeneID 246438), the entry reads replicate 1, z-score of dpERK with insulin -0.3.
Against CG9316 (GeneID 35333) the deposit lists replicate 1, z-score of dpERK with insulin 0.15.
For X11Lbeta (GeneID 31997) #1 the deposit lists replicate 1, z-score of dpERK with insulin -0.57.
X11Lbeta (GeneID 31997) #2 showed replicate 1, z-score of dpERK with insulin -0.22.
Hmr (GeneID 31988) gave replicate 1, z-score of dpERK with insulin -0.13.
t-Grip91 (GeneID 34931) gave replicate 1, z-score of dpERK with insulin -0.02.
Against CG15743 (GeneID 32279), the values are replicate 1, z-score of dpERK with insulin 0.
Depletion of Cpr57A + Obp57d #1 resulted in: replicate 1, z-score of dpERK with insulin -0.4.
Against Cpr57A + Obp57d #2, the entry reads replicate 1, z-score of dpERK with insulin 0.9.

Not a retest: 4 of the entries above.
X11Lbeta (GeneID 31997) #2 → replicate 1, z-score of dpERK with insulin: -0.22
Hmr (GeneID 31988) → replicate 1, z-score of dpERK with insulin: -0.13
t-Grip91 (GeneID 34931) → replicate 1, z-score of dpERK with insulin: -0.02
CG15743 (GeneID 32279) → replicate 1, z-score of dpERK with insulin: 0
